Laboratory results from the supplement of paper PMC11006884.
Most of the targets with a hit are listed elsewhere, so they are rarer here than in the full data. The data scatter; read single values as rough. The list shows a part of the results, in another mix than the full data.

The chains behind the UniProt entries cited, without tags or fusion partners. Where a name states a change or a piece, a line headed by the entry shows the natural chain unless it says otherwise.
UniProt Q12789: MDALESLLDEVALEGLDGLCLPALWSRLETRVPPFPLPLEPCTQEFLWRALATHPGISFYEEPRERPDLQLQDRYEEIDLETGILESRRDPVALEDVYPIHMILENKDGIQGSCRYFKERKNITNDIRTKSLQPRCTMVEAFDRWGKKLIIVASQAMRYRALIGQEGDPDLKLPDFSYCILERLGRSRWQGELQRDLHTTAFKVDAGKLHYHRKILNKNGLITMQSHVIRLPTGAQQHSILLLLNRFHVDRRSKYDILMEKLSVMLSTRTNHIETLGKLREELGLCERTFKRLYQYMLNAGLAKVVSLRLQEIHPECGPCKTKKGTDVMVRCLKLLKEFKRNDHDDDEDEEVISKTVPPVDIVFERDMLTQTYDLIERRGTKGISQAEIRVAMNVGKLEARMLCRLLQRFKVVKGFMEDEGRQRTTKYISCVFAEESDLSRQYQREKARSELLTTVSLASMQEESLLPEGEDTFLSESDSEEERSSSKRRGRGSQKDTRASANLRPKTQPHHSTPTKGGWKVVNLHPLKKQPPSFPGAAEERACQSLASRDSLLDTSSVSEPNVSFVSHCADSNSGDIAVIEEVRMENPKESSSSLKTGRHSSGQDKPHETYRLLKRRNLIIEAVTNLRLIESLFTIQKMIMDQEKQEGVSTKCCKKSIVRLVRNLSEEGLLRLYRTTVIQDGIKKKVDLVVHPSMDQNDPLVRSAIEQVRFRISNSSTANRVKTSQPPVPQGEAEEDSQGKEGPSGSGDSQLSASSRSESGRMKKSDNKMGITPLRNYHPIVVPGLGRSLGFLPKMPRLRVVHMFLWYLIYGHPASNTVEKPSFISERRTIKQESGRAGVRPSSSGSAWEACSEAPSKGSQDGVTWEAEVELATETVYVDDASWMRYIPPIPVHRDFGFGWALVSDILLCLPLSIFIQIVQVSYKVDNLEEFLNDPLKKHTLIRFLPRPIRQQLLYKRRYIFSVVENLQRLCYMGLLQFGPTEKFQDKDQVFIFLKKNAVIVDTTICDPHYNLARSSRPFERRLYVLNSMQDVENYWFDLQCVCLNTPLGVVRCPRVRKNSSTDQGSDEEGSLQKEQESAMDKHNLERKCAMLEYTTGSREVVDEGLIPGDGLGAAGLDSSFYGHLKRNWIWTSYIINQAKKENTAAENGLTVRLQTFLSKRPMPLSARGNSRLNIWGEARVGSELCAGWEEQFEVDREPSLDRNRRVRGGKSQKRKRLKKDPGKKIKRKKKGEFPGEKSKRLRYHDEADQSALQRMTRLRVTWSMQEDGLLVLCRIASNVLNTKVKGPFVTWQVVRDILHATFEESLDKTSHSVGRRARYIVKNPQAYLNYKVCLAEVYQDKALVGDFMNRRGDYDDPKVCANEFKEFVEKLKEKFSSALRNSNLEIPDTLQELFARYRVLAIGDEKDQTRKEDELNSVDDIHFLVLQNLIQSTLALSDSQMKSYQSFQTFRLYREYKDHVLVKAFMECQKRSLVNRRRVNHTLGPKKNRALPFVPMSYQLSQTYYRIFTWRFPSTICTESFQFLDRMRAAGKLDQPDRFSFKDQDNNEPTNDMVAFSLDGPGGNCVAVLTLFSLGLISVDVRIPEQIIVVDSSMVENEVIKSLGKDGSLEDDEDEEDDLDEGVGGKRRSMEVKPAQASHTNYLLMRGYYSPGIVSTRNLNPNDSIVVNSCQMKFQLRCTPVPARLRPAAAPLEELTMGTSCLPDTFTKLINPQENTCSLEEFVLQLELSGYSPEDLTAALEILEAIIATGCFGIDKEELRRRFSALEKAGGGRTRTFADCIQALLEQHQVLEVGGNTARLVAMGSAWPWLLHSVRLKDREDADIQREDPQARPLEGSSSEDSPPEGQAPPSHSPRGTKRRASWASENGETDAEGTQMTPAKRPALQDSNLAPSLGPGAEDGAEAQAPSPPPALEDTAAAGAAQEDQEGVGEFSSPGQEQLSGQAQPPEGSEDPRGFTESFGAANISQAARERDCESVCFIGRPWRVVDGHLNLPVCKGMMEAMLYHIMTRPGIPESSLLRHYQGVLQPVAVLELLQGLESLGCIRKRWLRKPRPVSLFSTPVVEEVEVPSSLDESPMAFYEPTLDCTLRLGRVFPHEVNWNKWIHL
UniProt Q13427: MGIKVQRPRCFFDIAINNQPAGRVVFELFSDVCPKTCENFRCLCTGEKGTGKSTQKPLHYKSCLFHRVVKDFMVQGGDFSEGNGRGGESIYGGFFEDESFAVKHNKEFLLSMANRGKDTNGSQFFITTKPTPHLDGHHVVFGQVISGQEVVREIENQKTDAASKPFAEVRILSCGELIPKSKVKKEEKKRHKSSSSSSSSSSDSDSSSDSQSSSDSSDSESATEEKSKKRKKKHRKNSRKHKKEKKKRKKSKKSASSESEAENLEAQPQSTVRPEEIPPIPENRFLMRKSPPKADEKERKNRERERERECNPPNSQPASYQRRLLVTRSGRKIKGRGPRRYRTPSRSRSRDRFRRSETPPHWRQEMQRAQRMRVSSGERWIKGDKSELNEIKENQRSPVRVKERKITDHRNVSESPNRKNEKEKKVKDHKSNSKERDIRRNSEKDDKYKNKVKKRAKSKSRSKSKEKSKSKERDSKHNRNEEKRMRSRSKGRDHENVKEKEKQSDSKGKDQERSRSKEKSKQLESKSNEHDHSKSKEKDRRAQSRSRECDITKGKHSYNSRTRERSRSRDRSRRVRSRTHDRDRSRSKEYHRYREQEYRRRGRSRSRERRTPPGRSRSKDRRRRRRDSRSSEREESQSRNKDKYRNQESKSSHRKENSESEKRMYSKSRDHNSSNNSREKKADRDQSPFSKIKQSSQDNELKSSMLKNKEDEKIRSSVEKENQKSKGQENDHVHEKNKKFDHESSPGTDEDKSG
UniProt Q05639, whole entry, looked up: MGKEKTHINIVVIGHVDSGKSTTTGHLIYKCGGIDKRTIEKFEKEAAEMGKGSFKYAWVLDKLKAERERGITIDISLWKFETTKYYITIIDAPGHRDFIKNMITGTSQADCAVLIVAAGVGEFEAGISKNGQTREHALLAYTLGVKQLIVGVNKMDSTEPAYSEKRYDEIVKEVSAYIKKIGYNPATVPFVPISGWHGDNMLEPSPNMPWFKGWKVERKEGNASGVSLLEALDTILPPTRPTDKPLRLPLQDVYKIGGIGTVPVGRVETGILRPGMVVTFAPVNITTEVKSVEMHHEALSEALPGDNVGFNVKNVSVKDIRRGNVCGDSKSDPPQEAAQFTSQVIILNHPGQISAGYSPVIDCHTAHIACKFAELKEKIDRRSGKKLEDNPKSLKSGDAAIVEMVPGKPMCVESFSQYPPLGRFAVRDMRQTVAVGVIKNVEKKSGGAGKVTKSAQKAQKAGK
UniProt Q12769: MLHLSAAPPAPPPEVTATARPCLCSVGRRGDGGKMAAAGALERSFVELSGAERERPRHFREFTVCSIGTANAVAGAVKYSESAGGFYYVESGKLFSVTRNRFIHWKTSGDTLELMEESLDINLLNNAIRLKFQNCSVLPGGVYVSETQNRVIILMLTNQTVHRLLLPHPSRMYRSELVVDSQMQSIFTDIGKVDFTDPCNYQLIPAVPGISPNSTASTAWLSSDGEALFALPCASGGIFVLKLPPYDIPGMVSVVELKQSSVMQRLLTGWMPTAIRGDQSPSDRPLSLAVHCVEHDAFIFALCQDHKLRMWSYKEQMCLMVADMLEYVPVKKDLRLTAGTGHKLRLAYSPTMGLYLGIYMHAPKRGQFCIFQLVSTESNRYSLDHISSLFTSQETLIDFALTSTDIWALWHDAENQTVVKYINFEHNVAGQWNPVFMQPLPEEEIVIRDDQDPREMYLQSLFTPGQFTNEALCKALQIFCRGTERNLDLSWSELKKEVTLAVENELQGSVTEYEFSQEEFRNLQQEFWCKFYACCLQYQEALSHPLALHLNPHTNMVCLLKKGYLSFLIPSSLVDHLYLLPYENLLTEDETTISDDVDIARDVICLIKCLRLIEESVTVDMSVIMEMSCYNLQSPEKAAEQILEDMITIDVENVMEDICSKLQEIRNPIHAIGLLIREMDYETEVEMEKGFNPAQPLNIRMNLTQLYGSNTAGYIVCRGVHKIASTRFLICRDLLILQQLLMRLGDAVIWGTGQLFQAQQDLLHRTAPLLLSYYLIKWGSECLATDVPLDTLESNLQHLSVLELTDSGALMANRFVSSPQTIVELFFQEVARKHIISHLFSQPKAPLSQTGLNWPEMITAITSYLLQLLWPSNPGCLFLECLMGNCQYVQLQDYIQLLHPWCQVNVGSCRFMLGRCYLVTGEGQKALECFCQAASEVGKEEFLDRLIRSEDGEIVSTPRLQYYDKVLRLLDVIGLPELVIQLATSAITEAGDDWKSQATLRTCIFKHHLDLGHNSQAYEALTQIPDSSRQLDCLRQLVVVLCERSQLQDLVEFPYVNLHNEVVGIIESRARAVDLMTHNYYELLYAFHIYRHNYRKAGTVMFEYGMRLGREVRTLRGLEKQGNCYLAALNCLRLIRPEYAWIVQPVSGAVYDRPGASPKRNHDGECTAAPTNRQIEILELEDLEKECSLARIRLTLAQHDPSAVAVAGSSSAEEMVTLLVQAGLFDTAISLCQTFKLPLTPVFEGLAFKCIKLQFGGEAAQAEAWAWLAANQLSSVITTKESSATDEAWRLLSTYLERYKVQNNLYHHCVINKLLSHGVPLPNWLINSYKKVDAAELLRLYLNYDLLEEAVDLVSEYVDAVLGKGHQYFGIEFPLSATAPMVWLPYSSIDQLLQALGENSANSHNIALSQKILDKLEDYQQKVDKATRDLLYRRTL
UniProt Q12986: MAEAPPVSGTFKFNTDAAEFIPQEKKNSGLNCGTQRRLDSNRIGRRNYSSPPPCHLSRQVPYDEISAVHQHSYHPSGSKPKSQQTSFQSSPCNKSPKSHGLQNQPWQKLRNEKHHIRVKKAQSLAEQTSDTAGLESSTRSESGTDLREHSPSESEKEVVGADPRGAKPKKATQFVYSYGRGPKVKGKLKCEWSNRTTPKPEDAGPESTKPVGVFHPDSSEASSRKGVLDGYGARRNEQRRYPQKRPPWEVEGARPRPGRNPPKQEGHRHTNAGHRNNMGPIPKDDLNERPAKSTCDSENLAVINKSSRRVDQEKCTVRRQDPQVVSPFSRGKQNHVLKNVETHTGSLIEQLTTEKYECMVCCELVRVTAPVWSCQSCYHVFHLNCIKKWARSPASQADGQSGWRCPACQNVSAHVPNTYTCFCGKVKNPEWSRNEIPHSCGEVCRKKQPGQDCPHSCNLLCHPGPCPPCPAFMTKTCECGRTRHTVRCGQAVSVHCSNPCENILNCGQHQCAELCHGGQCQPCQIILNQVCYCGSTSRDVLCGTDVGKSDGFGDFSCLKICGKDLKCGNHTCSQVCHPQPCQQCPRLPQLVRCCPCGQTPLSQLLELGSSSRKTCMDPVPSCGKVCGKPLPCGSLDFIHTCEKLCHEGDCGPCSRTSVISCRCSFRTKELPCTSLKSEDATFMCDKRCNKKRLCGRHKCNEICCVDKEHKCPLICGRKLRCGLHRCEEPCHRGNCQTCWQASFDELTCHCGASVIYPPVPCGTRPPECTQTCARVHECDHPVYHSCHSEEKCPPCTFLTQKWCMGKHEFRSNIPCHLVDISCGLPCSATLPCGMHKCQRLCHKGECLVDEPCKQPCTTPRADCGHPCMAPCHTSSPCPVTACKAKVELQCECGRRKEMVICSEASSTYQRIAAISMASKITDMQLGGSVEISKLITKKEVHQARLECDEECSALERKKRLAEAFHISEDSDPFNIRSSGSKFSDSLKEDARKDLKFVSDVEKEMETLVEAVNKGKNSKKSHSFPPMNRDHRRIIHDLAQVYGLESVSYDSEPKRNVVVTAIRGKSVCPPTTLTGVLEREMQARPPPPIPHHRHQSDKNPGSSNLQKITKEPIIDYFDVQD
UniProt Q05655: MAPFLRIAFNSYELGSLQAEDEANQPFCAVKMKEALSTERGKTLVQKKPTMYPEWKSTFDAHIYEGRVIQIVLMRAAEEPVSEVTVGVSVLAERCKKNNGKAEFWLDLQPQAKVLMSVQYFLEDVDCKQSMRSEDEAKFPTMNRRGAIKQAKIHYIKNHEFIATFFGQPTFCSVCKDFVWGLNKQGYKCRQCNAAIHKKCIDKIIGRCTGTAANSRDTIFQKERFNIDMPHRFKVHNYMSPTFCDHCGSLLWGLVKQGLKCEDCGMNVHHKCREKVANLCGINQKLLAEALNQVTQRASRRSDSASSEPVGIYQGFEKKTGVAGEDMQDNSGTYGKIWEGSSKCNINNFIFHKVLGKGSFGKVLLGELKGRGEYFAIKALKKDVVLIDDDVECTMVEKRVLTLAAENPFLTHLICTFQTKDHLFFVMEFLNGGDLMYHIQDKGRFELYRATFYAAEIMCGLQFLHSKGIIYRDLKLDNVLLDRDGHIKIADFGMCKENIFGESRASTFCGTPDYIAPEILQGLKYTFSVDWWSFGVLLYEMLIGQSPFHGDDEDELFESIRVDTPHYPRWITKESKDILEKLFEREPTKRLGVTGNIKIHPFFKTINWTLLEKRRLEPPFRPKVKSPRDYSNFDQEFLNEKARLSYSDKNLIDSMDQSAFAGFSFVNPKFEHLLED

compound: COC(=O)/C=C/c1ccccc1 [methyl cinnamate]; assay: log2 ratio of iodoacetamide-alkyne labeling of the cysteine site, DMSO over compound (competition); higher = stronger covalent engagement of the cysteine by the compound, active = 1 or more; details: 500 µM; treatment time 1 h; system: HEK293T cell lysate
Outline: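 Reporter intensities give each cysteine's log2 competition ratio as the mean of control channels over the mean of compound channels. The samples were HEK293T lysate (2 mg/mL) given vehicle or electrophile (500 µM, 1 h, ambient temperature), then iodoacetamide alkyne (1 h), followed by click coupling to sCIP-TMT reagents, pooling, trypsin digestion overnight at 37 °C, streptavidin enrichment, acid elution, Orbitrap Eclipse LC-MS/MS with FAIMS and FragPipe quantification. Duplicate channels and three replicates were run, and cysteines quantified in only one replicate were discarded.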

log2 ratio of iodoacetamide-alkyne labeling, inactive:
CEBPZ C374 (UniProt Q03701) 0.0682
EIF4G1 C1384 (UniProt Q04637) -0.0782
TRIM28 C232 (UniProt Q13263) -0.0783
TP53BP1 C1178 (UniProt Q12888) 0.356
SF3A3 C103 (UniProt Q12874) 0.145
DHX9 C469 (UniProt Q08211) 0.22
UniProt Q12768_C21 0.417
COASY C144 (UniProt Q13057) 0.134
ILK C422 (UniProt Q13418) 0.00864
CHAF1A C465 (UniProt Q13111) 0.211
GTF3C1 C1977 (UniProt Q12789) 0.162
NFIA C6 (UniProt Q12857) 0.0332
NSUN2 C599 (UniProt Q08J23) -0.0174
TRAF2 C182 (UniProt Q12933) -0.107
UniProt Q08117_C89 0.29
PPAT C105 (UniProt Q06203) 0.216
PPIG C310 (UniProt Q13427) 0.238
PMPCA C466 (UniProt Q10713) 0.00833
UniProt Q03188_C612 0.266
PSMD2 C779 (UniProt Q13200) 0.0793
UniProt Q13247_C61 -0.0475
EEF1A2 C411 (UniProt Q05639) 0.115
CHAF1A C21 (UniProt Q13111) 0.284
ROCK1 C1206 (UniProt Q13464) 0.327
RBPJ C68 (UniProt Q06330) 0.223
NSUN2 C184 (UniProt Q08J23) -0.133
GTF3C1 C2089 (UniProt Q12789) 0.271
MVK C275 (UniProt Q03426) 0.237
EHHADH C559 (UniProt Q08426) 0.144
MTA1 C512 (UniProt Q13330) 0.372
RPL18A C64 (UniProt Q02543) 0.095
C1QBP C186 (UniProt Q07021) 0.168
NUP160 C1003 (UniProt Q12769) -0.0602
TRIM32 C23 (UniProt Q13049) -0.455
GTF3C1 C1681 (UniProt Q12789) 0.105
PPIG C10 (UniProt Q13427) 0.135
NFX1 C295 (UniProt Q12986) 0.392
UniProt Q05655_C127 0.0459

Quoted at random: three records from the list, in no set order.
log2 ratio of iodoacetamide-alkyne labeling, inactive:
NUP160 C1003 (UniProt Q12769) -0.0602
CEBPZ C374 (UniProt Q03701) 0.0682
ROCK1 C1206 (UniProt Q13464) 0.327
